In the supplement of paper PMC12823440, “Inhibitors supercharge kinase turnover through native proteolytic circuits” (Nature, 2025):
Counter-ions that a name gives are not always drawn. This is one part of the list. Hit calls seldom repeat between salt and free forms of one compound.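 Kinases, fused to nanoluciferase, were expressed in K562 cells; luminescence was measured every 4 h from 2 to 18 h as percent of control (DMSO = 100%, positive control = 0%). A time point is decreased if signal falls significantly (2 sigma). Hits were called by the authors by a rule that is not shown; the count of time points alone does not decide it.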

Sequences of proteins named here, by UniProt entry; tags and fusion partners are left off. A change or cut given only in a name is not applied to a line headed by its entry.
UniProt P00519, whole entry: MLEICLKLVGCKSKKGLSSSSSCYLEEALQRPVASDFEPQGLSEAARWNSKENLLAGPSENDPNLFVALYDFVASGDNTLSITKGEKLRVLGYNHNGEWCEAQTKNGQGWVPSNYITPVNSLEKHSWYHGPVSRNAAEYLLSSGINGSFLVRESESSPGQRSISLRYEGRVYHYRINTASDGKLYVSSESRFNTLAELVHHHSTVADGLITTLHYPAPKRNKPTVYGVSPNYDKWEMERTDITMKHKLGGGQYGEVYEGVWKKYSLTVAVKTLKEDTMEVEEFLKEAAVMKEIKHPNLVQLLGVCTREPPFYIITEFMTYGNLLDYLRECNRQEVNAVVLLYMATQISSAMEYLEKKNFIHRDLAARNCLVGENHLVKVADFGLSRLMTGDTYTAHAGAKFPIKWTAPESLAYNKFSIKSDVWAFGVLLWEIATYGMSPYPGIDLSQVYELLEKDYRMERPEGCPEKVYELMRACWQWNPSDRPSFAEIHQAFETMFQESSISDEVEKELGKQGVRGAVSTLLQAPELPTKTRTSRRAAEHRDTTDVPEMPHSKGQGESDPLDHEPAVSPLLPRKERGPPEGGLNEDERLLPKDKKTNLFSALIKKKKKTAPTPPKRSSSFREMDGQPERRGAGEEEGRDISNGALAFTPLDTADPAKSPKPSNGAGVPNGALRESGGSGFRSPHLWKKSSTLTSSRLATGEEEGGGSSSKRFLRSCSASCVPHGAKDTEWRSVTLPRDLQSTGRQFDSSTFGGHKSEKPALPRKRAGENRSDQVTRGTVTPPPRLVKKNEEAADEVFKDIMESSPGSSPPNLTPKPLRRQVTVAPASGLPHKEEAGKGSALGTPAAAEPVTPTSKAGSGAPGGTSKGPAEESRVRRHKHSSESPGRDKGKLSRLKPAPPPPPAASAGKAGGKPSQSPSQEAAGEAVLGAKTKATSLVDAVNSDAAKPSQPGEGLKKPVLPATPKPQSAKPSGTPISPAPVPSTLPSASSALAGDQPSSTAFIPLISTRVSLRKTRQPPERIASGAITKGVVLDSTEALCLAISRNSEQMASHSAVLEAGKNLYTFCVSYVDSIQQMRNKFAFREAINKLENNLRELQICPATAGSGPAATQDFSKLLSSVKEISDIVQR
UniProt P31749: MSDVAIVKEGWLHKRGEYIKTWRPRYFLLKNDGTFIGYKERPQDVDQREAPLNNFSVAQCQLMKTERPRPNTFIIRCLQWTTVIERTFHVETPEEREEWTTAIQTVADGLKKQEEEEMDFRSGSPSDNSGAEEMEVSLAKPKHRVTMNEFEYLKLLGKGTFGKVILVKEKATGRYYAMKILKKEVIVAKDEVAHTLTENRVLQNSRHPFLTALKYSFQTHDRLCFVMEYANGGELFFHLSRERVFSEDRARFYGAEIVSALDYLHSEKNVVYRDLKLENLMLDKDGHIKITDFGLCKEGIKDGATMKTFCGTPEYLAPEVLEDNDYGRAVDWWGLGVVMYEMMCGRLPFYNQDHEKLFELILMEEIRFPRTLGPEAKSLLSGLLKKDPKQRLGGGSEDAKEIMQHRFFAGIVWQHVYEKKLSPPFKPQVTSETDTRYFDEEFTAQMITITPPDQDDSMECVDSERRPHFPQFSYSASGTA
UniProt P10398: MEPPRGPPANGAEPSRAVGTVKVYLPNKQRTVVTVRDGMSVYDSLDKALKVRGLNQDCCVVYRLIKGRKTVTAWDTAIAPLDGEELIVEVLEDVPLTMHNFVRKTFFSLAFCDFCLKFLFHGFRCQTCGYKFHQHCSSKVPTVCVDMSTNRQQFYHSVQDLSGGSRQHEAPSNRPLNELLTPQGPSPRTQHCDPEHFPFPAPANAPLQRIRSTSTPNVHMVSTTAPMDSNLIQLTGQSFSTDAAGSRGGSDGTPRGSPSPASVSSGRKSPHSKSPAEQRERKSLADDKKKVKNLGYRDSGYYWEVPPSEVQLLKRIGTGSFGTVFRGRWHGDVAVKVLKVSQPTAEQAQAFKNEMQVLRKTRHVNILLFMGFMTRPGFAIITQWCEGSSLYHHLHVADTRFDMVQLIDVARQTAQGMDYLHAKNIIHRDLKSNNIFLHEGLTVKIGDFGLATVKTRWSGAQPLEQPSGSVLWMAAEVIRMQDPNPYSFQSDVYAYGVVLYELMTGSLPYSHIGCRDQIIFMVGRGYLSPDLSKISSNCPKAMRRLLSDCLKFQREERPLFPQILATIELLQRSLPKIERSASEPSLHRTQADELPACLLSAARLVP
UniProt Q96GD4, whole entry: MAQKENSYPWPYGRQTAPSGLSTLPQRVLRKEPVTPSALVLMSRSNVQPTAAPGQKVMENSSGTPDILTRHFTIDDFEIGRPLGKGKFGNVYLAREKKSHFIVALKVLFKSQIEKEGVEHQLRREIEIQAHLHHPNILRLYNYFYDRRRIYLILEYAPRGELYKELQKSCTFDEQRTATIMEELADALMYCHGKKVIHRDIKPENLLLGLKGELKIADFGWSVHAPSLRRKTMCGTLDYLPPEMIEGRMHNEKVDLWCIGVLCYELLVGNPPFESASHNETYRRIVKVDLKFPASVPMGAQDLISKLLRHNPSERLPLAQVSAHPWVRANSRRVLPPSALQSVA
UniProt Q9UQB9: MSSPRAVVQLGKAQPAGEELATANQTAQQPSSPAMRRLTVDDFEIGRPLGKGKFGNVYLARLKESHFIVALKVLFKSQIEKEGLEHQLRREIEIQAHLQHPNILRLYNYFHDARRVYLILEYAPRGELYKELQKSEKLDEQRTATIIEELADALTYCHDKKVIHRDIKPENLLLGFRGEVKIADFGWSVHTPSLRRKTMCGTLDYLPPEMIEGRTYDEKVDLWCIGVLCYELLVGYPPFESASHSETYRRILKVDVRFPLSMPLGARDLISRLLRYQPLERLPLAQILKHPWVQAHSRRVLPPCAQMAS
UniProt P51451: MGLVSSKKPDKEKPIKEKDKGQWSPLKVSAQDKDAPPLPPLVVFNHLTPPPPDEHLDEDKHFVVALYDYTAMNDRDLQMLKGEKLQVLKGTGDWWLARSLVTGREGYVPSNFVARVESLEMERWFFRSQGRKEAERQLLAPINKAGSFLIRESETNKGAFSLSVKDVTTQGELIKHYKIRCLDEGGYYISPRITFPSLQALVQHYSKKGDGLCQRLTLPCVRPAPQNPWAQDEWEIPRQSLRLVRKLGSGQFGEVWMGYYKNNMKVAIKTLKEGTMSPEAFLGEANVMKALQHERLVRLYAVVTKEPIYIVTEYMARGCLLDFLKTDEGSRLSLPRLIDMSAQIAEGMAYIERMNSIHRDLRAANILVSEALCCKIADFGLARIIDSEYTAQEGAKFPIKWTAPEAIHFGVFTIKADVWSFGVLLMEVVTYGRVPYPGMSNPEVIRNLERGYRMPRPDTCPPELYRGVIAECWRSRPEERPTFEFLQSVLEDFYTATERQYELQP
UniProt Q06187: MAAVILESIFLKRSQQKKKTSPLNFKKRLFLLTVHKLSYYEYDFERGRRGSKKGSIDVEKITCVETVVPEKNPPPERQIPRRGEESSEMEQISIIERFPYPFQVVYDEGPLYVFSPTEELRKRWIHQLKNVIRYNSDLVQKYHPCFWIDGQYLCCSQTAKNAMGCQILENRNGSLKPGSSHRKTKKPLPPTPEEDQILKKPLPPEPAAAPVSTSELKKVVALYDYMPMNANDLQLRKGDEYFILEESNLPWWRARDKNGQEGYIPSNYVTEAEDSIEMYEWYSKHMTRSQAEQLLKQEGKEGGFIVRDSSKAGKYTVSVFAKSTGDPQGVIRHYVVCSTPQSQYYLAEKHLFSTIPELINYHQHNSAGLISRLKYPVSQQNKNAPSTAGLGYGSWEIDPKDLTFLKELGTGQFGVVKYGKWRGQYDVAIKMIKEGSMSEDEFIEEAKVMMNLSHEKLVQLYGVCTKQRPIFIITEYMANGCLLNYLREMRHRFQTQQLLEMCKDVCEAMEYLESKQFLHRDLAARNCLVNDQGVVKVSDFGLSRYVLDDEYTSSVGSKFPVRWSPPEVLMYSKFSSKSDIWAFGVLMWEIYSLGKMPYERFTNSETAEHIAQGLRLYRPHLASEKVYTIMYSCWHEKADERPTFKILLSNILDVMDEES
UniProt Q9UQM7, whole entry: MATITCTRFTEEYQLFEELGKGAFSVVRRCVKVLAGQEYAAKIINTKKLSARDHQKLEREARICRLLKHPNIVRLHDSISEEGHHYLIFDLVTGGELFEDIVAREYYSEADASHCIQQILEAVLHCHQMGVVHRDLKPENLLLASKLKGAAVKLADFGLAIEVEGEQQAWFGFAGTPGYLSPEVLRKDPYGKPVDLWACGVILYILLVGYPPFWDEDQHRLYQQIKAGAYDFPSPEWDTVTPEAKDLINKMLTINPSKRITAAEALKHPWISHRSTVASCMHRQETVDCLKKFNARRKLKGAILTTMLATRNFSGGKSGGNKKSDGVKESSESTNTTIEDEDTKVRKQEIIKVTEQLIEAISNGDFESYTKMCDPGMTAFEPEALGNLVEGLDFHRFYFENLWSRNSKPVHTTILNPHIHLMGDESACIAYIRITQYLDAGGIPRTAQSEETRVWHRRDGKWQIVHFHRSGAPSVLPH
UniProt Q13555: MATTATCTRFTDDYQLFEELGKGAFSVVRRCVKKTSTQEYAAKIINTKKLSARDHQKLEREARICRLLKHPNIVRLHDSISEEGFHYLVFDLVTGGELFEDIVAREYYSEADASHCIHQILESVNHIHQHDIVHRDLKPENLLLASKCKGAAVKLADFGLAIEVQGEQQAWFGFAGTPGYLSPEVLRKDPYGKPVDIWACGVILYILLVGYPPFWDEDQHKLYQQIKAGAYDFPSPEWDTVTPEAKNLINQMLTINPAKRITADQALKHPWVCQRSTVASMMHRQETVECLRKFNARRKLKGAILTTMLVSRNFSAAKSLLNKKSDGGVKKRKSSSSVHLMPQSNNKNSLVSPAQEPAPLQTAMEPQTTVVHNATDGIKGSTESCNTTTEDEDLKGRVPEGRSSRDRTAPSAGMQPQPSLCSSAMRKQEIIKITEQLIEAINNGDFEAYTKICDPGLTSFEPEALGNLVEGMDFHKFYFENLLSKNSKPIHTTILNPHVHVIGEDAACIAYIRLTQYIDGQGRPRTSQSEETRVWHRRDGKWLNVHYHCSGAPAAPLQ
UniProt Q15131: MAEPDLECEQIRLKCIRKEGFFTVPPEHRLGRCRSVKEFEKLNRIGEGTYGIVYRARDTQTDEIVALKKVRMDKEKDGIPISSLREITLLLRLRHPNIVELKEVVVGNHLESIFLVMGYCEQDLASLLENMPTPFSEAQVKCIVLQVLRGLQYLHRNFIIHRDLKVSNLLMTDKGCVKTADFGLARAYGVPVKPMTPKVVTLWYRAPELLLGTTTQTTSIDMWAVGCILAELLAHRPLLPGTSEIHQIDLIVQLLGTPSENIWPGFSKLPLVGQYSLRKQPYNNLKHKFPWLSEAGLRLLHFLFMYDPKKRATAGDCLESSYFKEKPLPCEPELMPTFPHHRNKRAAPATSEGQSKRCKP
UniProt Q00526: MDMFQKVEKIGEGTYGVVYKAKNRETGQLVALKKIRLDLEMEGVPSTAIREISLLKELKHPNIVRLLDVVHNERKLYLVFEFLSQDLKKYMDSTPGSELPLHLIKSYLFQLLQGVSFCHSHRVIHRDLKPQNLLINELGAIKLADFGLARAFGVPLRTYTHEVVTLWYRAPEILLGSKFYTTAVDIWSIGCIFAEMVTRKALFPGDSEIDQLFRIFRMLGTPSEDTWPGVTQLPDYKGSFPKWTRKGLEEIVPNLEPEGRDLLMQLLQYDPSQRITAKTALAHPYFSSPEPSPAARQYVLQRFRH
UniProt Q00535, whole entry, looked up: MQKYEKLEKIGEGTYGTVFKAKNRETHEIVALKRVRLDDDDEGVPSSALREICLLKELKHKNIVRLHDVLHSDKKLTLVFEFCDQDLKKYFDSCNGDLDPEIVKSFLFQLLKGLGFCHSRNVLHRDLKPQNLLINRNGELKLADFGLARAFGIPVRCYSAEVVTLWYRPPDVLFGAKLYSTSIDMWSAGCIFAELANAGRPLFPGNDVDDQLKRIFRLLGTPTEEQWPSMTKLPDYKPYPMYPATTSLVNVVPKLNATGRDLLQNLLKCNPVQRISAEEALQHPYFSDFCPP
UniProt Q00534, whole entry: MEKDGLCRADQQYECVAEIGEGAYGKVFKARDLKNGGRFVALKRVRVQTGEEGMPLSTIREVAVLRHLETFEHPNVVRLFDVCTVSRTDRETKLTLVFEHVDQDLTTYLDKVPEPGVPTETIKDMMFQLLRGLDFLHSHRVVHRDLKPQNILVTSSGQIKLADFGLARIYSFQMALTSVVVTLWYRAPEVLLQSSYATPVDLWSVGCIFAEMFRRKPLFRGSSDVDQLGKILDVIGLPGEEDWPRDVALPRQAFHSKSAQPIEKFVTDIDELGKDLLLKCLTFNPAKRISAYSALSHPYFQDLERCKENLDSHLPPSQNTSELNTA

Key:
Assay in all cases: kinase-Nluc reporter destabilization hit call (1 = scored as downregulated) (binary); higher = compound decreases kinase abundance
Settings in all cases: K562; 2-18 h
ABL1 = ABL1 (UniProt P00519)
AKT1 = AKT1 (UniProt P31749)
ALK = ALK (UniProt Q9UM73)
ARAF = ARAF (UniProt P10398)
AURKA = AURKA (UniProt O14965)
AURKB = AURKB (UniProt Q96GD4)
AURKC = AURKC (UniProt Q9UQB9)
BLK = BLK (UniProt P51451)
BMX = BMX (UniProt P51813)
BRAF = BRAF (UniProt P15056)
BTK = BTK (UniProt Q06187)
CAMK2A = CAMK2A (UniProt Q9UQM7)
CAMK2G = CAMK2G (UniProt Q13555)
CDK10 = CDK10 (UniProt Q15131)
CDK2 = CDK2 (UniProt P24941)
CDK3 = CDK3 (UniProt Q00526)
CDK4 = CDK4 (UniProt P11802)
CDK5 = CDK5 (UniProt Q00535)
CDK6 = CDK6 (UniProt Q00534)
BRAF_V600E = test system: BRAF_V600E

Measured: kinase-Nluc reporter destabilization hit call

CCOc1cc2ncc(-c3cc(N)nc(F)c3)n2cc1S(=O)(=O)C(C)(C)C (10 µM)
inactive: ABL1 = 0 | AKT1 = 0 | ALK 0 | ARAF 0 | AURKA 0 | AURKB 0 | AURKC 0 | BLK 0 | BMX 0 | BRAF 0 | BTK 0 | CAMK2A 0 | CAMK2G 0 | CDK10 = 0 | CDK2 = 0 | CDK3 = 0 | CDK4 = 0 | CDK5 = 0 | CDK6 = 0

COc1cc2ncnc(Nc3ccc(O)cc3)c2cc1OC (10 µM)
inactive: ABL1 = 0 | AKT1 = 0 | ALK 0 | ARAF 0 | AURKA 0 | AURKB 0 | AURKC 0 | BLK 0 | BMX 0 | BRAF_V600E 0 | BTK 0 | CAMK2A 0 | CAMK2G 0 | CDK10 = 0 | CDK3 = 0 | CDK4 = 0 | CDK5 = 0 | CDK6 = 0

CCOc1ccn(-c2ccc(F)cc2)c(=O)c1C(=O)Nc1ccc(Oc2ccnc(N)c2Cl)c(F)c1 (10 µM)
inactive: ABL1 = 0 | AKT1 = 0 | ALK 0 | ARAF 0 | AURKA 0 | AURKB 0 | AURKC 0 | BLK 0 | BMX 0 | BRAF_V600E 0 | CAMK2A 0 | CAMK2G 0 | CDK10 = 0 | CDK2 = 0 | CDK3 = 0 | CDK4 = 0 | CDK5 = 0 | CDK6 = 0

CC(C)c1ccc2oc3nc(N)c(C(=O)O)cc3c(=O)c2c1 [Amlexanox] (10 µM)
inactive: ABL1 = 0 | AKT1 = 0 | ALK 0 | ARAF 0 | AURKA 0 | AURKB 0 | AURKC 0 | BLK 0 | BMX 0 | BRAF 0 | BTK 0 | CAMK2A 0 | CAMK2G 0 | CDK10 = 0 | CDK2 = 0 | CDK3 = 0 | CDK4 = 0 | CDK5 = 0 | CDK6 = 0

CN(C)C[C@@H]1CCn2cc(c3ccccc32)C2=C(C(=O)NC2=O)c2cn(c3ccccc23)CCO1 [Ruboxistaurin (hydrochloride)] (10 µM)
inactive: ABL1 = 0 | AKT1 = 0 | ALK 0 | ARAF 0 | AURKA 0 | AURKB 0 | AURKC 0 | BLK 0 | BMX 0 | BRAF 0 | BRAF_V600E 0 | CAMK2A 0 | CAMK2G 0 | CDK10 = 0 | CDK2 = 0 | CDK3 = 0 | CDK5 = 0 | CDK6 = 0

COCCOc1cc2nccc(Nc3n[nH]c(C)c3C)c2cc1S(=O)(=O)C(C)(C)C [RIP2 kinase inhibitor 2] (2.5 µM)
inactive: ABL1 = 0 | AKT1 = 0 | ALK 0 | ARAF 0 | AURKA 0 | AURKB 0 | AURKC 0 | BLK 0 | BMX 0 | BRAF 0 | BTK 0 | CAMK2A 0 | CAMK2G 0 | CDK10 = 0 | CDK2 = 0 | CDK3 = 0 | CDK4 = 0 | CDK5 = 0 | CDK6 = 0

CCn1c(=O)c2cc(C(N)=O)c(N)nc2n(C2CC2)c1=O (10 µM)
inactive: ABL1 = 0 | AKT1 = 0 | ALK 0 | ARAF 0 | AURKA 0 | AURKB 0 | AURKC 0 | BLK 0 | BMX 0 | BRAF 0 | BTK 0 | CAMK2A 0 | CAMK2G 0 | CDK10 = 0 | CDK2 = 0 | CDK3 = 0 | CDK4 = 0 | CDK5 = 0 | CDK6 = 0

Cc1ccc2c(Nc3ccc(Cl)cc3)nccc2c1Nc1ncccc1-c1ncnc2nc[nH]c12 [Raf inhibitor 1] (2.5 µM)
inactive: ABL1 = 0 | AKT1 = 0 | ALK 0 | ARAF 0 | AURKA 0 | AURKB 0 | AURKC 0 | BLK 0 | BMX 0 | BRAF_V600E 0 | BTK 0 | CAMK2A 0 | CAMK2G 0 | CDK10 = 0 | CDK2 = 0 | CDK3 = 0 | CDK4 = 0 | CDK5 = 0 | CDK6 = 0

CN(C)CCOc1ccc(-c2nc(-c3ccncc3)c(-c3ccc4c(c3)CC/C4=N\O)[nH]2)cc1 (10 µM)
inactive: ABL1 = 0 | AKT1 = 0 | ALK 0 | ARAF 0 | AURKA 0 | AURKB 0 | AURKC 0 | BLK 0 | BMX 0 | BRAF_V600E 0 | BTK 0 | CAMK2A 0 | CAMK2G 0 | CDK10 = 0 | CDK2 = 0 | CDK3 = 0 | CDK4 = 0 | CDK5 = 0 | CDK6 = 0

NC(=O)c1ccc(-c2nc(-c3ccccn3)c(-c3ccc4c(c3)OCO4)[nH]2)cc1 (10 µM)
inactive: ABL1 = 0 | AKT1 = 0 | ALK 0 | ARAF 0 | AURKA 0 | AURKB 0 | AURKC 0 | BLK 0 | BMX 0 | BRAF_V600E 0 | BTK 0 | CAMK2A 0 | CAMK2G 0 | CDK10 = 0 | CDK3 = 0 | CDK4 = 0 | CDK5 = 0 | CDK6 = 0

CC#CC(=O)N[C@H]1CCCN(c2c(F)cc(C(N)=O)c3[nH]c(C)c(C)c23)C1 [Branebrutinib] (10 µM)
inactive: ABL1 = 0 | AKT1 = 0 | ALK 0 | ARAF 0 | AURKA 0 | AURKB 0 | AURKC 0 | BLK 0 | BRAF 0 | BRAF_V600E 0 | BTK 0 | CAMK2A 0 | CAMK2G 0 | CDK10 = 0 | CDK2 = 0 | CDK3 = 0 | CDK4 = 0 | CDK5 = 0 | CDK6 = 0

CC(C)(C)c1cc(NC(=O)Nc2ccc(-c3cn4c(n3)sc3cc(OCCN5CCOCC5)ccc34)cc2)no1 [Quizartinib] (10 µM)
inactive: ABL1 = 0 | AKT1 = 0 | ALK 0 | ARAF 0 | AURKA 0 | AURKB 0 | AURKC 0 | BLK 0 | BMX 0 | BRAF_V600E 0 | BTK 0 | CAMK2A 0 | CAMK2G 0 | CDK10 = 0 | CDK2 = 0 | CDK3 = 0 | CDK4 = 0 | CDK5 = 0 | CDK6 = 0

CN1CCN(S(=O)(=O)c2ccc(-c3cnc(N)c(C(=O)Nc4cccnc4)n3)cc2)CC1 (10 µM)
inactive: ABL1 = 0 | AKT1 = 0 | ALK 0 | ARAF 0 | AURKA 0 | AURKB 0 | AURKC 0 | BLK 0 | BMX 0 | BRAF 0 | BTK 0 | CAMK2A 0 | CAMK2G 0 | CDK10 = 0 | CDK2 = 0 | CDK3 = 0 | CDK4 = 0 | CDK5 = 0 | CDK6 = 0

Cc1cc(F)c(C(=O)Nc2cccc(-c3nncn3C(C)C)n2)cc1-n1cnc(C2CC2)c1 [Selonsertib] (10 µM)
inactive: ABL1 = 0 | AKT1 = 0 | ALK 0 | ARAF 0 | AURKA 0 | AURKB 0 | AURKC 0 | BLK 0 | BMX 0 | BRAF 0 | BTK 0 | CAMK2A 0 | CAMK2G 0 | CDK10 = 0 | CDK2 = 0 | CDK3 = 0 | CDK4 = 0 | CDK5 = 0 | CDK6 = 0

CNC(=O)c1cccc2cc(Oc3ccnc4cc(OCC5(N)CC5)c(OC)cc34)ccc12 [Lucitanib] (10 µM)
inactive: ABL1 = 0 | AKT1 = 0 | ALK 0 | ARAF 0 | AURKA 0 | AURKB 0 | AURKC 0 | BLK 0 | BMX 0 | BRAF_V600E 0 | BTK 0 | CAMK2A 0 | CAMK2G 0 | CDK10 = 0 | CDK3 = 0 | CDK4 = 0 | CDK5 = 0 | CDK6 = 0

2 compounds drawn at random from those above:
Cc1cc(F)c(C(=O)Nc2cccc(-c3nncn3C(C)C)n2)cc1-n1cnc(C2CC2)c1 [Selonsertib] (10 µM)
inactive: ABL1 = 0 | AKT1 = 0 | ALK 0 | ARAF 0 | AURKA 0 | AURKB 0 | AURKC 0 | BLK 0 | BMX 0 | BRAF 0 | BTK 0 | CAMK2A 0 | CAMK2G 0 | CDK10 = 0 | CDK2 = 0 | CDK3 = 0 | CDK4 = 0 | CDK5 = 0 | CDK6 = 0

COc1cc2ncnc(Nc3ccc(O)cc3)c2cc1OC (10 µM)
inactive: ABL1 = 0 | AKT1 = 0 | ALK 0 | ARAF 0 | AURKA 0 | AURKB 0 | AURKC 0 | BLK 0 | BMX 0 | BRAF_V600E 0 | BTK 0 | CAMK2A 0 | CAMK2G 0 | CDK10 = 0 | CDK3 = 0 | CDK4 = 0 | CDK5 = 0 | CDK6 = 0

Continuation.

COCc1c(-c2ccc(NC(=O)Nc3cc(C(F)(F)F)ccc3F)c(F)c2)c2c(N)ncnn2c1CN1CCOCC1 (2.5 µM)
inactive: ABL1 = 0 | AKT1 = 0 | ALK 0 | ARAF 0 | AURKA 0 | AURKB 0 | AURKC 0 | BLK 0 | BMX 0 | BRAF_V600E 0 | BTK 0 | CAMK2A 0 | CAMK2G 0 | CDK10 = 0 | CDK2 = 0 | CDK3 = 0 | CDK4 = 0 | CDK5 = 0 | CDK6 = 0

Cc1cc(CS(=O)(=O)c2ccccc2)cc(OCc2ccc(CN3CCC[C@@H]3CO)cc2)c1 [PF-543 (Citrate)] (10 µM)
inactive: ABL1 = 0 | AKT1 = 0 | ALK 0 | ARAF 0 | AURKA 0 | AURKB 0 | AURKC 0 | BLK 0 | BMX 0 | BRAF 0 | BTK 0 | CAMK2A 0 | CAMK2G 0 | CDK10 = 0 | CDK2 = 0 | CDK3 = 0 | CDK4 = 0 | CDK5 = 0 | CDK6 = 0

CN1CCN(c2ccc(C(=O)Nc3n[nH]c4ccc(Cc5cc(F)cc(F)c5)cc34)c(NC3CCOCC3)c2)CC1 [Entrectinib] (2.5 µM)
inactive: ABL1 = 0 | AKT1 = 0 | ALK 0 | ARAF 0 | AURKA 0 | AURKB 0 | AURKC 0 | BLK 0 | BMX 0 | BRAF_V600E 0 | BTK 0 | CAMK2A 0 | CAMK2G 0 | CDK10 = 0 | CDK2 = 0 | CDK3 = 0 | CDK4 = 0 | CDK6 = 0

COc1cc(F)cc([C@@H](CO)NC(=O)[C@@H](C)N2Cc3ccc(-c4nc(NC5CCOCC5)ncc4Cl)cc3C2=O)c1 [ERK1/2 inhibitor 2] (10 µM)
inactive: ABL1 = 0 | AKT1 = 0 | ALK 0 | ARAF 0 | AURKA 0 | AURKB 0 | AURKC 0 | BLK 0 | BMX 0 | BRAF 0 | BTK 0 | CAMK2A 0 | CAMK2G 0 | CDK10 = 0 | CDK2 = 0 | CDK3 = 0 | CDK4 = 0 | CDK5 = 0 | CDK6 = 0

COc1ccc(NC(=O)N2CCN(c3nc(N)nc4c3cnn4C)[C@@H](C)C2)c(C)c1 (10 µM)
inactive: ABL1 = 0 | AKT1 = 0 | ALK 0 | ARAF 0 | AURKA 0 | AURKB 0 | AURKC 0 | BLK 0 | BMX 0 | BRAF 0 | BTK 0 | CAMK2A 0 | CAMK2G 0 | CDK10 = 0 | CDK2 = 0 | CDK3 = 0 | CDK4 = 0 | CDK5 = 0 | CDK6 = 0
